Source: ChEMBL document CHEMBL3988442, “University of Dundee, Small-Polar-MMV Screening Library” (2021).

Chains of the proteins cited; added tags and fusions are not shown. Residues count along the entry.
UniProt Q4DA54, 1-478: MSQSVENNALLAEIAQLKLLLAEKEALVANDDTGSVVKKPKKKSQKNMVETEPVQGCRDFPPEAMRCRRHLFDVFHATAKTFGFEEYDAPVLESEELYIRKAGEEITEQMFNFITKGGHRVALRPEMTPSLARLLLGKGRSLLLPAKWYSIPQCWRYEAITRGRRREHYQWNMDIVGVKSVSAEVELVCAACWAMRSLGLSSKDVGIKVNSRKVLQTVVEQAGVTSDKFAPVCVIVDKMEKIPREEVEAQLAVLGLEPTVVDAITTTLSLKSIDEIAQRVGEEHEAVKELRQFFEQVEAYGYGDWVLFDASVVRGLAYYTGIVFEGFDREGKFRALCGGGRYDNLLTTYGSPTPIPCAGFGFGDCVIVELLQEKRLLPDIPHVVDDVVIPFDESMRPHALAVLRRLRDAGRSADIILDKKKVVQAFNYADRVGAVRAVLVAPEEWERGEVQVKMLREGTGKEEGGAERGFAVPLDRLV
UniProt A4I591, 1-473: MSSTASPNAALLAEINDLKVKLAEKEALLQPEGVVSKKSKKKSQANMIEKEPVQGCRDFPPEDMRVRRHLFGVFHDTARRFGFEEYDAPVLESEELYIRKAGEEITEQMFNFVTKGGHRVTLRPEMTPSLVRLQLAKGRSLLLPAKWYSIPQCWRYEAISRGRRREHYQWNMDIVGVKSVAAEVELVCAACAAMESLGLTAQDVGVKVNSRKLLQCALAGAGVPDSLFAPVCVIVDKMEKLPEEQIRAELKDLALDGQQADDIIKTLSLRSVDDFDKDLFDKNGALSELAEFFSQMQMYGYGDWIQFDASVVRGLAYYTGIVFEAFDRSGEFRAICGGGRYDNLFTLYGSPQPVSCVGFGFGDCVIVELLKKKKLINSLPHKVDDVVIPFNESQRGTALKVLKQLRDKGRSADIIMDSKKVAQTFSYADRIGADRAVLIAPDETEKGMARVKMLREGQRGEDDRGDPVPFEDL

A: 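Whole-parasite assay of Trypanosoma brucei over 72 hours; the read-out is not stated. Concentration: 30 µM. Higher reads as stronger inhibition (inferred: compounds with an IC50 in retests scored well above the rest). Values scatter widely below zero; nearly all retest evidence comes from the higher of the two concentrations used. About 64,000 compounds were tested under these conditions; 1.5% (about 940) showed 50% or more at least once.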
B: 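Histidine-tRNA ligase, Trypanosoma cruzi CL Brener (UniProt Q4DA54). Enzyme assay of histidyl-tRNA synthetase; the read-out is not stated. Tested at 30 µM. Higher reads as stronger inhibition (inferred: compounds with an IC50 in retests scored well above the rest). Of about 69,000 compounds tested this way, about 31 (0.045%) reached 50% or more in at least one test.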
C: 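Histidine-tRNA ligase, Leishmania infantum (UniProt A4I591). Enzyme assay of histidyl-tRNA synthetase; the read-out is not stated. Tested at 30 µM. Direction is inferred from retests: higher values go with stronger inhibition. The assay is labelled LdHisRS but filed under L. infantum. Size under these conditions: about 69,000 compounds, about 410 of them at 50% or above in at least one test.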

Values are the deposited “Percent Effect”, in %. The controls that fix the scale are not given in the record; negative values are as filed. The compounds are a random part of those screened. A dash means the value is not listed here; it may have been measured.

SMILES,A,B,C
COc1ccc(CNCC(C)Oc2ccccn2)cc1Br.Cl (stereo unspecified),43.21,-,-
Cc1nn(C)c2c(N3CCN(C(=O)c4ccccc4)CC3)ncnc12,8.533,-1.639,11.65
CCCN(CCc1cccc(F)c1)c1ccc2nnnn2n1,-35.72,0.8403,22.81
O=C(c1cnoc1)N1CCC[C@]2(C[C@H](Oc3ncccc3F)CO2)C1,-,2.479,13.33
COc1ccc2nnc(CCCC(=O)NCc3cccn3C)n2n1,16.67,-1.639,17.48
CCN(CC1CN(Cc2cccnc2)CCO1)c1cccnn1 (stereo unspecified),-22.35,6.667,-4.464
Cc1ccc(OCc2occc2C(=O)N2CCCCC(N)C2)cc1 (stereo unspecified),11.86,4.464,15.93
O=C(Cc1cccc(F)c1)NCCNCc1ccco1,-27.58,4.58,13.7
O=C(CN1C=Nc2ccccc2S1(=O)=O)NCc1ccccc1,19.84,1.156,14.91
O=C(O)C(F)(F)F.O=C(c1cnccn1)N1CCOC2(CCN(Cc3ccsc3)CC2)C1,4.194,-,-
CC(NC(=O)NCc1cccc(CN2CCCC2)c1)c1nccs1 (stereo unspecified),-6.821,2.564,14.29
Cc1ccc(C(=O)O)cc1CNC(=O)CN1CC(C)(C)[C@@](C)(O)C1,2.13,1.657,-4.819
O=C1OCCN1CCOc1nc(-c2ccccc2Cl)no1,-68.8,1.653,21.15
O=C1CCC(C(=O)N2CCC(Cn3cc(C4CCCC4)nn3)CC2)=NN1,-0.7875,10.71,15.5
[H][C@@]12CCN(C(=O)c3c(C)noc3C)C[C@@]1([H])O[C@@H](c1ccnc(C)n1)C2,17.35,-,-
COCCNc1ccccc1CNC(=O)C1CCCOC1 (stereo unspecified),-6.933,4.598,16.13
O=C(O)C(F)(F)F.[H][C@]12CCCC(OC)[C@@]1([H])CN(Cc1csc(C)n1)C2 (stereo partly specified),-27.3,-,-
COc1cccc(C(CO)NC(=O)Cc2ccc(F)c(Br)c2)c1 (stereo unspecified),-26.58,5.682,15
COCCN(C)C[C@@H]1CCC[C@@H]2CN(c3ncccn3)C[C@@H]21,-,6.796,17.48
Cc1c[nH]c(CN2CC[C@@]3(O)CCN(C(=O)C4CCC4)C[C@H]3C2)n1,-,5.419,22.37
CNC(=O)N1CCC2(CC1)CN(C)Cc1cc(F)ccc12,-,9.816,15.38
Cc1ccc2c(c1)OC(C)(C)CC2NC(=O)C1CCN(C)CC1 (stereo unspecified),-19.96,0,4.301
Cc1cncnc1C1CCN(C(=O)CN(C)C)CC1,-,8.462,9.859
CCC(=O)N1CCC2(CC1)CN(CCO)Cc1ccccc12.O=C(O)C(F)(F)F,-9.68,-,-
Cc1nc(C)n(CC2CN(CC(=O)Nc3nccs3)CCO2)n1 (stereo unspecified),18.17,2.439,22.12
COc1cccc2c1ccn2CCC(=O)Nc1c2c(nn1C)CSC2,1.107,15.46,20.88
Cc1nc(N2CCCCC2)ncc1-c1cc(O)nc(N2CCCCC2)n1,-25.73,4.348,0
CCOC(=O)C1CCN(C(=O)c2cc(F)ccc2-n2cnnn2)CC1,5.225,6,19.57
CCc1[nH]ncc1C(=O)N1CCCN(Cc2cnn(C)c2)CC1,-18.77,1.887,16
COc1cc(C)ccc1OCCC(=O)N1CCC(N2CC=CC2)C1 (stereo unspecified),-9.224,-3.097,6.195
CCOC(=O)CCNC(=O)N1CCCC(CNC(=O)c2ccco2)C1 (stereo unspecified),-7.191,2.564,3.175
O=C(Nc1cccnc1)C1Cc2nc(-c3ccsc3)sc2N1CC1CC1 (stereo unspecified),-,11.43,62.5
NC(=O)CN1CCCC1c1ccccc1Br (stereo unspecified),13.8,5.952,13.33
Cl.[H][C@@]12CCN(Cc3cccs3)C[C@]1([H])[C@@H](c1ccsc1)CN2C(=O)C(C)(C)C,3.972,-,-
FC(F)(F)Cc1noc(CN2CCCC2c2noc(C3CC3)n2)n1 (stereo unspecified),8.19,-0.7519,19.05
Cc1cc(C)n(CC2CCCN2CC(=O)N(C)CCC#N)n1 (stereo unspecified),-10.68,2.616,9.649
Cc1nnc(NC(=O)NC(C)C(=O)NC2CCCC2)s1 (stereo unspecified),0.6702,6.173,17.2
COCC(=O)N1C[C@H]2CNC[C@@]2(C(=O)NCc2snnc2C)C1,-,7.447,18.57
[H][C@@]12CS(=O)(=O)C[C@]1([H])N(C(=O)C1CC1)CCN2Cc1[nH]cnc1C,6.531,-,-
CCCc1cc(NCc2ccc(CO)cc2)n2nccc2n1,-20.6,7.216,11.43
O=S(=O)(C1CC1)N1CC[C@]2(C[C@@H](Oc3ccccn3)CO2)C1,-,2.174,20.39
O=C(CCNC(=O)c1ccccc1)Nc1ccncc1,-1.217,-2.174,17.14

For reference, 4 entries once more:

* Cc1nc(C)n(CC2CN(CC(=O)Nc3nccs3)CCO2)n1 (stereo unspecified) : A: 18.17%; B: 2.439%; C: 22.12%
* CCc1[nH]ncc1C(=O)N1CCCN(Cc2cnn(C)c2)CC1 : A: -18.77%; B: 1.887%; C: 16%
* CCCc1cc(NCc2ccc(CO)cc2)n2nccc2n1 : A: -20.6%; B: 7.216%; C: 11.43%
* CCCN(CCc1cccc(F)c1)c1ccc2nnnn2n1 : A: -35.72%; B: 0.8403%; C: 22.81%